{
  "source": "patent US20210251269A1",
  "about": "“Beverages Comprising Highly Soluble Steviol Glycoside Blend and Glucosylated Steviol Glycosides” (The Coca-Cola Company, priority 2018, published 2021)",
  "origin": "cited, not measured here",
  "conditions": "cited from earlier work",
  "note": "Some results were stated once for a whole list of compounds, not compound by compound. At least one structure is not confirmed: it was looked up by name or label, or the drawing left a doubt.",
  "data": [
    {"compound": "C=C1C[C@@]23CC[C@H]4[C@@](C)(CCC[C@@]4(C)C(=O)O[C@@H]4O[C@H](CO)[C@@H](O)[C@H](O[C@@H]5O[C@H](CO)[C@@H](O)[C@H](O)[C@H]5O)[C@H]4O[C@@H]4O[C@H](CO)[C@@H](O)[C@H](O)[C@H]4O)[C@@H]2CC[C@]1(O[C@@H]1O[C@H](CO)[C@@H](O)[C@H](O[C@@H]2O[C@H](CO)[C@@H](O)[C@H](O)[C@H]2O)[C@H]1O[C@@H]1O[C@H](CO)[C@@H](O)[C@H](O)[C@H]1O)C3", "note": "[Reb-M, Rebaudioside M]", "values": [
      {"measurement": "aqueous solubility", "value": "0.05-0.1 wt %"}
    ]},
    {"compound": "Rebaudioside B", "values": [
      {"measurement": "aqueous solubility", "value": "0.05-0.1 wt %"}
    ]}
  ]
}
